From patent US20160251403A1, “PEPTIDE COMBINATIONS AND USES THEREOF IN TREATING DUST MITE ALLERGY” (ALK-ABELLO A/S, priority 2013, published 2016)

System: HLA Class II alleles
Assay: HLA Class II phenotypic coverage in a worldwide population calculated from alleles found to bind in vitro
Design: species or system human

Q: Which results are given for `CC[C@H](C)[C@H](NC(=O)CNC(=O)[C@@H](N)CCCNC(=N)N)C(=O)N[C@@H](CCC(=O)O)C(=O)N[C@@H](Cc1ccc(O)cc1)C(=O)N[C@H](C(=O)N[C@@H](CCC(N)=O)C(=O)N[C@@H](Cc1c[nH]cn1)C(=O)N[C@@H](CC(N)=O)C(=O)NCC(=O)N[C@H](C(=O)N[C@H](C(=O)N[C@@H](CCC(N)=O)C(=O)N[C@@H](CCC(=O)O)C(=O)N[C@@H](CO)C(=O)O)C(C)C)C(C)C)[C@@H](C)CC` [pep-025]?
A: Number of alleles (Cutoff 1000 nM): 12; Number of alleles (Cutoff: 300 nM): 6

Q: `CC[C@H](C)[C@H](NC(=O)[C@H](CO)NC(=O)[C@@H]1CCCN1C(=O)[C@H](CCC(=O)O)NC(=O)[C@H](CO)NC(=O)CNC(=O)[C@H](Cc1c[nH]cn1)NC(=O)[C@H](CO)NC(=O)CN)C(=O)N[C@H](C(=O)N[C@@H](Cc1c[nH]cn1)C(=O)N[C@@H](CCCNC(=N)N)C(=O)NCC(=O)N[C@@H](CCCCN)C(=O)N1CCC[C@H]1C(=O)N[C@@H](Cc1ccccc1)C(=O)N[C@@H](CCC(N)=O)C(=O)N[C@@H](CC(C)C)C(=O)N[C@@H](CCC(=O)O)C(=O)N[C@@H](C)C(=O)O)[C@@H](C)CC` [pep-090] was tested. Which Number of alleles (Cutoff 1000 nM) did it give?
A: 8

Q: And the Number of alleles (Cutoff: 300 nM)?
A: 6

Q: Which Number of alleles (Cutoff 1000 nM) does the source give for `CC[C@H](C)[C@H](NC(=O)[C@H](CCSC)NC(=O)[C@H](CCCNC(=N)N)NC(=O)[C@H](Cc1ccccc1)NC(=O)[C@H](CCCCN)NC(=O)[C@@H](NC(=O)[C@H](CCSC)NC(=O)[C@H](CC(N)=O)NC(=O)[C@H](Cc1ccc(O)cc1)NC(=O)[C@@H](NC(=O)[C@@H](N)CCC(=O)O)[C@@H](C)CC)C(C)C)C(=O)N[C@@H](C)C(=O)NCC(=O)N[C@@H](CCC(N)=O)C(=O)N[C@@H](CCC(=O)O)C(=O)O` [pep-117] here?
A: 14

Q: What about the Number of alleles (Cutoff: 300 nM) of the same molecule?
A: 10

Q: Which Number of alleles (Cutoff 1000 nM) does the source give for `CC[C@H](C)[C@H](NC(=O)CNC(=O)[C@@H](N)CCCNC(=N)N)C(=O)N[C@@H](CCC(=O)O)C(=O)N[C@@H](Cc1ccc(O)cc1)C(=O)N[C@H](C(=O)N[C@@H](CCC(N)=O)C(=O)N[C@@H](Cc1c[nH]cn1)C(=O)N[C@@H](CC(N)=O)C(=O)NCC(=O)N[C@H](C(=O)N[C@H](C(=O)N[C@@H](CCC(N)=O)C(=O)N[C@@H](CCC(=O)O)C(=O)N[C@@H](CO)C(=O)N[C@@H](Cc1ccc(O)cc1)C(=O)N[C@@H](Cc1ccc(O)cc1)C(=O)N[C@@H](CCCNC(=N)N)C(=O)N[C@@H](Cc1ccc(O)cc1)C(=O)N[C@H](C(=O)N[C@@H](C)C(=O)N[C@@H](CCCNC(=N)N)C(=O)O)C(C)C)C(C)C)C(C)C)[C@@H](C)CC` [pep-123] here?
A: 16

Q: What about the Number of alleles (Cutoff: 300 nM) of the same molecule?
A: 12

Q: How did the Number of alleles (Cutoff 1000 nM) turn out when `CC[C@H](C)[C@H](NC(=O)CNC(=O)[C@@H](NC(=O)[C@@H](NC(=O)[C@@H](NC(=O)[C@H](C)NC(=O)[C@@H](NC(=O)[C@H](C)NC(=O)[C@H](CO)NC(=O)[C@H](Cc1c[nH]cn1)NC(=O)[C@@H](NC(=O)[C@H](CCC(N)=O)NC(=O)[C@H](C)NC(=O)[C@H](CC(C)C)NC(=O)[C@H](C)NC(=O)[C@H](CCC(=O)O)NC(=O)[C@@H](N)CCCNC(=N)N)[C@@H](C)O)[C@@H](C)CC)C(C)C)[C@@H](C)CC)[C@@H](C)CC)C(=O)N[C@@H](CCCCN)C(=O)N[C@@H](CC(=O)O)C(=O)N[C@@H](CC(C)C)C(=O)N[C@@H](CC(=O)O)C(=O)N[C@@H](C)C(=O)O` [pep-130] was run?
A: 16

Q: And the Number of alleles (Cutoff: 300 nM)?
A: 11

Q: How did the Number of alleles (Cutoff 1000 nM) turn out when ATESAYLAYRNTSLD [pep-022] was run?
A: 8

Q: What about the Number of alleles (Cutoff: 300 nM) of the same molecule?
A: 6

Q: With DNGYGYFAANIDLMMIEE [pep-010] as the molecule, how does the Number of alleles (Cutoff 1000 nM) read?
A: 20

Q: What about the Number of alleles (Cutoff: 300 nM) of the same molecule?
A: 16

Q: Which results are given for ESAYLAYRNQSLDLAE [pep-009]?
A: Number of alleles (Cutoff 1000 nM): 13; Number of alleles (Cutoff: 300 nM): 10

Q: Which Number of alleles (Cutoff 1000 nM) does the source give for GSGSSWAFSGVAATESAYLA [pep-044] here?
A: 17

Q: And the Number of alleles (Cutoff: 300 nM)?
A: 12

Q: What does the source list for GSHGSDPSIIHRGKPFTLEA [pep-102]?
A: Number of alleles (Cutoff 1000 nM): 8; Number of alleles (Cutoff: 300 nM): 7

Q: How did the Number of alleles (Cutoff 1000 nM) turn out when HAVNIVGYSNAQGVDYWIVR [pep-058] was run?
A: 15

Q: And the Number of alleles (Cutoff: 300 nM)?
A: 12

Q: With HRGKPFQLEAVFEANQNTKT [pep-091] as the molecule, how does the Number of alleles (Cutoff 1000 nM) read?
A: 10

Q: And the Number of alleles (Cutoff: 300 nM)?
A: 5

Q: Which results are given for IEYIQHNGVVQESYYRYVAR [pep-049]?
A: Number of alleles (Cutoff 1000 nM): 16; Number of alleles (Cutoff: 300 nM): 9

Q: With IEYIQQNGVVEERSYPYVAR [pep-075] as the molecule, how does the Number of alleles (Cutoff 1000 nM) read?
A: 10

Q: And the Number of alleles (Cutoff: 300 nM)?
A: 5

Q: For KSENVVVTVKLVGDNGVLAS [pep-109], which Number of alleles (Cutoff 1000 nM) is on record?
A: 7

Q: What about the Number of alleles (Cutoff: 300 nM) of the same molecule?
A: 6

Q: How did the Number of alleles (Cutoff 1000 nM) turn out when LVGDNGVLASAIATHAKIRD [pep-110] was run?
A: 12

Q: And the Number of alleles (Cutoff: 300 nM)?
A: 8

Q: LVKGQQYDIKYTWNVPKIAPK [pep-131] was tested. Which Number of alleles (Cutoff 1000 nM) did it give?
A: 9

Q: And the Number of alleles (Cutoff: 300 nM)?
A: 6

Q: Which Number of alleles (Cutoff 1000 nM) does the source give for NGYGYFAANIDLMM [pep-011] here?
A: 15

Q: And the Number of alleles (Cutoff: 300 nM)?
A: 9

Q: Which results are given for NHEIKKVLVPGSHGSEPSII [pep-089]?
A: Number of alleles (Cutoff 1000 nM): 2; Number of alleles (Cutoff: 300 nM): 2

Q: For QESYYRYVAREQSSRR [pep-122], which Number of alleles (Cutoff 1000 nM) is on record?
A: 10

Q: And the Number of alleles (Cutoff: 300 nM)?
A: 6

Q: Which Number of alleles (Cutoff 1000 nM) does the source give for QESYYRYVAREQSSRRPNAQ [pep-050] here?
A: 4

Q: What about the Number of alleles (Cutoff: 300 nM) of the same molecule?
A: 2

Q: How did the Number of alleles (Cutoff 1000 nM) turn out when QQYDIKYTWNVPKIA [pep-031] was run?
A: 14

Q: What about the Number of alleles (Cutoff: 300 nM) of the same molecule?
A: 7

Q: What does the source list for VMGDDGVLASAIATHAKIRD [pep-099]?
A: Number of alleles (Cutoff 1000 nM): 8; Number of alleles (Cutoff: 300 nM): 5

Q: VMGDNGVLASAIATHAKIRD [pep-125] was tested. Which Number of alleles (Cutoff 1000 nM) did it give?
A: 6

Q: And the Number of alleles (Cutoff: 300 nM)?
A: 4

Q: Which results are given for VQESYYRYVAREQSSRRPNAQ [pep-124]?
A: Number of alleles (Cutoff 1000 nM): 5; Number of alleles (Cutoff: 300 nM): 3

Q: With YPPNANKIREALAQTHSAIA [pep-053] as the molecule, how does the Number of alleles (Cutoff 1000 nM) read?
A: 6

Q: And the Number of alleles (Cutoff: 300 nM)?
A: 5

No end group written: not given here.
